Where two headings read alike, the source gives them in different places. These are yes or no findings as the source states them, for the method shown. In cells and extracts the contact can be indirect. Here binding means that the protein was enriched with, or labelled near, the bait; the list need not be complete. For part of these data: No binding means not detected with the bait.

By UniProt entry, the sequences of proteins in these tests, tags left out. Where a name states a change or a piece, a line headed by the entry shows the natural chain unless it says otherwise.
UniProt Q96ES7: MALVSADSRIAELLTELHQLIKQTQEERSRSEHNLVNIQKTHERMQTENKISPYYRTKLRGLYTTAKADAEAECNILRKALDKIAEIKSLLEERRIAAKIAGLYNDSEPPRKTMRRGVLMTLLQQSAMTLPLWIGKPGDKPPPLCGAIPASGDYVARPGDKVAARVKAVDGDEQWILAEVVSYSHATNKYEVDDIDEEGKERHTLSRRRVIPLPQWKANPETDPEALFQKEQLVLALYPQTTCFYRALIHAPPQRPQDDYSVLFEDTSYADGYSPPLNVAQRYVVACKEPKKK
UniProt O75528: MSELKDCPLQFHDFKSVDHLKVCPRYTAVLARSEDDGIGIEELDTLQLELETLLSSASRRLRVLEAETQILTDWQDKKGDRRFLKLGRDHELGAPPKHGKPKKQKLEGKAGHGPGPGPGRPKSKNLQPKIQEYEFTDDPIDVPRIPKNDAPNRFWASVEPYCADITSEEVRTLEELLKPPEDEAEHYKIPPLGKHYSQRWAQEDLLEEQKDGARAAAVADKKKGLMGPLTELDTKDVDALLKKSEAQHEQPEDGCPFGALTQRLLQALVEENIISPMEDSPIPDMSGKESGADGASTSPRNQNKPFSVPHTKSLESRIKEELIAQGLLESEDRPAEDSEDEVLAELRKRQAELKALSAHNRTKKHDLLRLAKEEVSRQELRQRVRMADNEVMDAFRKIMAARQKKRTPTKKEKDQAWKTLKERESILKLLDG
UniProt Q92830: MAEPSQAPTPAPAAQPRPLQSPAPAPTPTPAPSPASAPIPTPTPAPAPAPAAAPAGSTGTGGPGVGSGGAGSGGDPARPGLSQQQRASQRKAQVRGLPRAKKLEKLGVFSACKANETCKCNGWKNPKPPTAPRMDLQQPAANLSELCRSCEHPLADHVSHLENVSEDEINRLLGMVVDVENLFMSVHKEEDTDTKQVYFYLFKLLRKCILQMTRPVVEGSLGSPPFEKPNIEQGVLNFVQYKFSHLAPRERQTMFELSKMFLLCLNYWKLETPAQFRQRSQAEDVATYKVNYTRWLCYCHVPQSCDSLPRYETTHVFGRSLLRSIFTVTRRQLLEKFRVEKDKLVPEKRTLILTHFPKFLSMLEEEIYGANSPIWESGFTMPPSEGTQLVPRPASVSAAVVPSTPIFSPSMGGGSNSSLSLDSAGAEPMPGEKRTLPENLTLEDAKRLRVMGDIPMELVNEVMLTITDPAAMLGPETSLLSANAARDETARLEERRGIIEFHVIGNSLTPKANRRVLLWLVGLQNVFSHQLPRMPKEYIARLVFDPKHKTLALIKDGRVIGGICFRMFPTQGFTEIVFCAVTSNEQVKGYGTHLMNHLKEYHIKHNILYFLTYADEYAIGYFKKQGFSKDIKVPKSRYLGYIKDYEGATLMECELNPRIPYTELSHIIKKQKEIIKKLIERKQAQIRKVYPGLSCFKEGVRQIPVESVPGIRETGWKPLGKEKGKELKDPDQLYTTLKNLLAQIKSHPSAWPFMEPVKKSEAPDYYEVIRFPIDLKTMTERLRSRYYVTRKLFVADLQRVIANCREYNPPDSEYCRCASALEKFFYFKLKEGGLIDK
UniProt Q92831: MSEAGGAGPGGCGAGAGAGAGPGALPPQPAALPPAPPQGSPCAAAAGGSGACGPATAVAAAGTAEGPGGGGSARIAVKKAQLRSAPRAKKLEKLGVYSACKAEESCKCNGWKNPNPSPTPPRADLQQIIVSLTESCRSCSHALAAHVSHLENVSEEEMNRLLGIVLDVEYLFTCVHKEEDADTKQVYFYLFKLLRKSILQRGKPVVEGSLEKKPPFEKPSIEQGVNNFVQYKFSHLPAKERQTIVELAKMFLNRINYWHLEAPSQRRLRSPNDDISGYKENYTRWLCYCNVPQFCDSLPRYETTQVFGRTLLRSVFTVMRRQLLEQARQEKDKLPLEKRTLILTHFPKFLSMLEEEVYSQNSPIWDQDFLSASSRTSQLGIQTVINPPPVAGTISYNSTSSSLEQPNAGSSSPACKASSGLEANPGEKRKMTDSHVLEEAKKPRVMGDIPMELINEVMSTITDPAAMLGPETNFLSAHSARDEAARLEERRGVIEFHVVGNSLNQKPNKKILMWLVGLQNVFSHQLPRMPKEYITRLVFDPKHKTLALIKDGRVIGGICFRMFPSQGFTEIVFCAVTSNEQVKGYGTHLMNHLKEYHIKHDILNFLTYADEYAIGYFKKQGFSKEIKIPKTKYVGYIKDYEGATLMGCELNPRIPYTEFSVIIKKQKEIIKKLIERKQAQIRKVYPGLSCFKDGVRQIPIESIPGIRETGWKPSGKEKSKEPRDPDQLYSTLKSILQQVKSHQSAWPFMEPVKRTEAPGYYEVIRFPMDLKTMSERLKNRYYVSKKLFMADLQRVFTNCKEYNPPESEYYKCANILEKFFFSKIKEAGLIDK
UniProt O95602: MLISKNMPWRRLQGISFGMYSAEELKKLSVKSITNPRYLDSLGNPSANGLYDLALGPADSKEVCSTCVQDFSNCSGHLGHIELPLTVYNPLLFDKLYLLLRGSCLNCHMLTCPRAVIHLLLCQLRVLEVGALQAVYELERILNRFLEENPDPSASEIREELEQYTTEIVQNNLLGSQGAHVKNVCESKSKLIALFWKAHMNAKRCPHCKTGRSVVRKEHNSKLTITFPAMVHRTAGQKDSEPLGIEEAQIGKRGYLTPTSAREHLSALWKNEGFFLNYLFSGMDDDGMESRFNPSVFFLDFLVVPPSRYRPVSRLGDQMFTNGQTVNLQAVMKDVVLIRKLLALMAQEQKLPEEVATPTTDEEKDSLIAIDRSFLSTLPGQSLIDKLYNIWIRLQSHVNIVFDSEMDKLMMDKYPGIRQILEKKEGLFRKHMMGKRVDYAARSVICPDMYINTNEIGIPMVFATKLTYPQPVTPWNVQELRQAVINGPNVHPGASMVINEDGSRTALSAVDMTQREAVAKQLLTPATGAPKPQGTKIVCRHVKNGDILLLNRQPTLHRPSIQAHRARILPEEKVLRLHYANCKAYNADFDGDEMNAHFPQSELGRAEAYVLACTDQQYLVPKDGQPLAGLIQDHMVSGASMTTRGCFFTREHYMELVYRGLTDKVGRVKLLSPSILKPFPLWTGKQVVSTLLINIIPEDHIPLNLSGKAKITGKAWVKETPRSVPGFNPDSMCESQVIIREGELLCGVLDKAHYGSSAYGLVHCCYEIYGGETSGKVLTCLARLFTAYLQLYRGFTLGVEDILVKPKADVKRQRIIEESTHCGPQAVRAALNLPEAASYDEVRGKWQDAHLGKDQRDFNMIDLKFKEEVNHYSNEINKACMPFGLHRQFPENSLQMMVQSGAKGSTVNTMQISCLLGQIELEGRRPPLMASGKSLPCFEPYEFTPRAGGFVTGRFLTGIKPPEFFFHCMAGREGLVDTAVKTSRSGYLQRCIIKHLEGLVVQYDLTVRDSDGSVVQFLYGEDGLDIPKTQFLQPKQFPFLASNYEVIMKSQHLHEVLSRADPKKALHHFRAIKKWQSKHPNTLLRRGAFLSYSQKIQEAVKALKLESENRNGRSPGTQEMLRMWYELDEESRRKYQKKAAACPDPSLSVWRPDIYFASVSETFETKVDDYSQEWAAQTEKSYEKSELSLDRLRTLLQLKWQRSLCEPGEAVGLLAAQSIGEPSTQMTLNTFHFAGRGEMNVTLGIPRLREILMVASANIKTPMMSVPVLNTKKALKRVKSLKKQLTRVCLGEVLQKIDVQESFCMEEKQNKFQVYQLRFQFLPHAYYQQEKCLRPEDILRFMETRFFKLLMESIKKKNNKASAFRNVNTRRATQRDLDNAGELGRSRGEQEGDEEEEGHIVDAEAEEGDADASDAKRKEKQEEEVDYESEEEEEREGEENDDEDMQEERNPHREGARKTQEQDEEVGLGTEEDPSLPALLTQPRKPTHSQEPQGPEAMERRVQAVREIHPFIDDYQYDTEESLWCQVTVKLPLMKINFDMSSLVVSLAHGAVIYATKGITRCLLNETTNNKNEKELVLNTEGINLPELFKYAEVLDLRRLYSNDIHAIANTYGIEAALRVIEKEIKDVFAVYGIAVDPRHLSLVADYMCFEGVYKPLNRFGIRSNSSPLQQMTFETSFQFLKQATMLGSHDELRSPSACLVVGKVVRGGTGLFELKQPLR
UniProt O75486: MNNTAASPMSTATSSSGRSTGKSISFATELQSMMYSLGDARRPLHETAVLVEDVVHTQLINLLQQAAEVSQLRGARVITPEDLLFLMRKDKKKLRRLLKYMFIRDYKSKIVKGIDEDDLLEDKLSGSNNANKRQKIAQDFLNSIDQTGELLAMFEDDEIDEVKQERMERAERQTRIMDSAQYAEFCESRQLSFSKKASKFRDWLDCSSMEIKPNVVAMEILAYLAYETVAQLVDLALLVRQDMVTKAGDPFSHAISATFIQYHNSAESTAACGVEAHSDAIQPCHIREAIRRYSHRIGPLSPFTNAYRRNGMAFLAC
UniProt Q16594: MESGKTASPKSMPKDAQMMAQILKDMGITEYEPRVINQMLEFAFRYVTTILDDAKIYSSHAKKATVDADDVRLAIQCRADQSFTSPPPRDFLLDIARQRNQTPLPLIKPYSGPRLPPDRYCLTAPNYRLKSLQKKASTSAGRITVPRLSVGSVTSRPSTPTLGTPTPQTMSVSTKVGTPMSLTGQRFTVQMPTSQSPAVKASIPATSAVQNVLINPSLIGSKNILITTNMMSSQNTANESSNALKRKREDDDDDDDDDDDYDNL
UniProt P08047: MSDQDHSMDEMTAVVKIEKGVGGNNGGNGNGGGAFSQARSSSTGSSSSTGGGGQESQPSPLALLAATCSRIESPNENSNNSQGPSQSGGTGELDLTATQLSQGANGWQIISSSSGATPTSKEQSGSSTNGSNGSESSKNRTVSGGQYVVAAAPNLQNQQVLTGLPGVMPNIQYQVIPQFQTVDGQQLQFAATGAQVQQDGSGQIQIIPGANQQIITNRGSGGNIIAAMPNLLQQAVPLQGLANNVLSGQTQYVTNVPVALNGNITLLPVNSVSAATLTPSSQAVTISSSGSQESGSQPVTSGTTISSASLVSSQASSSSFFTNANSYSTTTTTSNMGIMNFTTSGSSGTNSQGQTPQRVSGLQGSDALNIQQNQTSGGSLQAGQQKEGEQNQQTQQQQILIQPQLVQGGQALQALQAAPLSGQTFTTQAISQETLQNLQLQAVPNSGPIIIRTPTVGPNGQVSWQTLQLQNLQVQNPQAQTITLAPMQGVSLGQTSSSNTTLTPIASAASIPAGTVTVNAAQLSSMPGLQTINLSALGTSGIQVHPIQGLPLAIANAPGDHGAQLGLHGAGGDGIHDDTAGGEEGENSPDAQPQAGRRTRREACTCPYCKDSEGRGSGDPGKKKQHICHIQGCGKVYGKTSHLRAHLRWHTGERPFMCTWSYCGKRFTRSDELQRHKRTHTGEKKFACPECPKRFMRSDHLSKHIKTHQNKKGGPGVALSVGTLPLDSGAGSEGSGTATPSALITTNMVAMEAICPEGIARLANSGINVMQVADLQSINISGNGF

Results on 13 molecules are retold here after PMC10630320.

Common to all, as to experiment: affinity purification with mass spectrometry; co-IP/MS in HEK293T cells expressing SGF29-WT or SGF29-R207P with flag and EGFP dual tags; Flag-EGFP as control
The target in experiment [1] is Flag-EGFP-SGF29-R207P (human) (UniProt Q96ES7).
The target in experiment [2] is Flag-EGFP-SGF29-WT (human) (UniProt Q96ES7).
The target of experiment [3] is Flag-EGFP-SGF29-R207P (human) (UniProt Q96ES7). The source holds these as a separate data set.
Experiment [4] concerns the target Flag-EGFP-SGF29-WT (human) (UniProt Q96ES7). The source holds these as a separate data set.

In the case of ADA3 (from UniProt O75528 1-432), the binding entry in experiment [1] and in experiment [2] was “binds” in each case.

As to “KAT2A (GCN5) (from UniProt Q92830 1-837)”, the binding result in experiment [1] and in experiment [2] was “binds” in each case.

With KAT2B (from UniProt Q92831 1-832), the binding entry in experiment [1] and in experiment [2] was “binds” each time.

Take “POLR1A, a subunit of RNA polymerase I (from UniProt O95602 1-1720)”: in experiment [2], the binding result is listed as “binds”.

SUPT3H (from UniProt O75486 1-317): the binding entry is “no binding” in experiment [1] and “binds” in experiment [2].

In the case of TAF9 (from UniProt Q16594 1-264), the figures for the binding result in experiment [1] and in experiment [2] were “no binding” and “binds”, respectively.

Regarding “Transcription factor SP1 (from UniProt P08047 1-785)”, the binding entry in experiment [1] was “no binding”; in experiment [2], “binds”.

B1: mediator of RNA polymerase II transcription subunit 4 (MED4) (protein, UniProt Q9NPJ6 1-270)
chain: MAASSSGEKEKERLGGGLGVAGGNSTRERLLSALEDLEVLSRELIEMLAISRNQKLLQAGEENQVLELLIHRDGEFQELMKLALNQGKIHHEMQVLEKEVEKRDSDIQQLQKQLKEAEQILATAVYQAKEKLKSIEKARKGAISSEEIIKYAHRISASNAVCAPLTWVPGDPRRPYPTDLEMRSGLLGQMNNPSTNGVNGHLPGDALAAGRLPDVLAPQYPWQSNDMSMNMLPPNHSSDFLLEPPGHNKENEDDVEIMSTDSSSSSSESD
B1: the binding entry is reported as “no binding” in experiment [3] and “binds” in experiment [4].

B2: GTF2H2 (protein, UniProt Q13888 1-395)
chain: MDEEPERTKRWEGGYERTWEILKEDESGSLKATIEDILFKAKRKRVFEHHGQVRLGMMRHLYVVVDGSRTMEDQDLKPNRLTCTLKLLEYFVEEYFDQNPISQIGIIVTKSKRAEKLTELSGNPRKHITSLKKAVDMTCHGEPSLYNSLSIAMQTLKHMPGHTSREVLIIFSSLTTCDPSNIYDLIKTLKAAKIRVSVIGLSAEVRVCTVLARETGGTYHVILDESHYKELLTHHVSPPPASSSSECSLIRMGFPQHTIASLSDQDAKPSFSMAHLDGNTEPGLTLGGYFCPQCRAKYCELPVECKICGLTLVSAPHLARSYHHLFPLDAFQEIPLEEYNGERFCYGCQGELKDQHVYVCAVCQNVFCVDCDVFVHDSLHCCPGCIHKIPAPSGV
Turning to B2, the results for the binding result in experiment [3] and in experiment [4] were “no binding” and “binds”, respectively.

B3: TCOF1, also known as treacle (protein, UniProt Q13428 1-1488)
chain: MAEARKRRELLPLIYHHLLRAGYVRAAREVKEQSGQKCFLAQPVTLLDIYTHWQQTSELGRKRKAEEDAALQAKKTRVSDPISTSESSEEEEEAEAETAKATPRLASTNSSVLGADLPSSMKEKAKAETEKAGKTGNSMPHPATGKTVANLLSGKSPRKSAEPSANTTLVSETEEEGSVPAFGAAAKPGMVSAGQADSSSEDTSSSSDETDVEGKPSVKPAQVKASSVSTKESPARKAAPAPGKVGDVTPQVKGGALPPAKRAKKPEEESESSEEGSESEEEAPAGTRSQVKASEKILQVRAASAPAKGTPGKGATPAPPGKAGAVASQTKAGKPEEDSESSSEESSDSEEETPAAKALLQAKASGKTSQVGAASAPAKESPRKGAAPAPPGKTGPAVAKAQAGKREEDSQSSSEESDSEEEAPAQAKPSGKAPQVRAASAPAKESPRKGAAPAPPRKTGPAAAQVQVGKQEEDSRSSSEESDSDREALAAMNAAQVKPLGKSPQVKPASTMGMGPLGKGAGPVPPGKVGPATPSAQVGKWEEDSESSSEESSDSSDGEVPTAVAPAQEKSLGNILQAKPTSSPAKGPPQKAGPVAVQVKAEKPMDNSESSEESSDSADSEEAPAAMTAAQAKPALKIPQTKACPKKTNTTASAKVAPVRVGTQAPRKAGTATSPAGSSPAVAGGTQRPAEDSSSSEESDSEEEKTGLAVTVGQAKSVGKGLQVKAASVPVKGSLGQGTAPVLPGKTGPTVTQVKAEKQEDSESSEEESDSEEAAASPAQVKTSVKKTQAKANPAAARAPSAKGTISAPGKVVTAAAQAKQRSPSKVKPPVRNPQNSTVLARGPASVPSVGKAVATAAQAQTGPEEDSGSSEEESDSEEEAETLAQVKPSGKTHQIRAALAPAKESPRKGAAPTPPGKTGPSAAQAGKQDDSGSSSEESDSDGEAPAAVTSAQVIKPPLIFVDPNRSPAGPAATPAQAQAASTPRKARASESTARSSSSESEDEDVIPATQCLTPGIRTNVVTMPTAHPRIAPKASMAGASSSKESSRISDGKKQEGPATQVSKKNPASLPLTQAALKVLAQKASEAQPPVARTQPSSGVDSAVGTLPATSPQSTSVQAKGTNKLRKPKLPEVQQATKAPESSDDSEDSSDSSSGSEEDGEGPQGAKSAHTLGPTPSRTETLVEETAAESSEDDVVAPSQSLLSGYMTPGLTPANSQASKATPKLDSSPSVSSTLAAKDDPDGKQEAKPQQAAGMLSPKTGGKEAASGTTPQKSRKPKKGAGNPQASTLALQSNITQCLLGQPWPLNEAQVQASVVKVLTELLEQERKKVVDTTKESSRKGWESRKRKLSGDQPAARTPRSKKKKKLGAGEGGEASVSPEKTSTTSKGKAKRDKASGDVKEKKGKGSLGSQGAKDEPEEELQKGMGTVEGGDQSNPKSKKEKKKSDKRKKDKEKKEKKKKAKKASTKDSESPSQKKKKKKKKTAEQTV
As to B3, in experiment [4], the binding entry is “binds”.

B4: ADA2A (protein, UniProt O75478 1-443)
chain: MDRLGPFSNDPSDKPPCRGCSSYLMEPYIKCAECGPPPFFLCLQCFTRGFEYKKHQSDHTYEIMTSDFPVLDPSWTAQEEMALLEAVMDCGFGNWQDVANQMCTKTKEECEKHYMKHFINNPLFASTLLNLKQAEEAKTADTAIPFHSTDDPPRPTFDSLLSRDMAGYMPARADFIEEFDNYAEWDLRDIDFVEDDSDILHALKMAVVDIYHSRLKERQRRKKIIRDHGLINLRKFQLMERRYPKEVQDLYETMRRFARIVGPVEHDKFIESHALEFELRREIKRLQEYRTAGITNFCSARTYDHLKKTREEERLKRTMLSEVLQYIQDSSACQQWLRRQADIDSGLSPSIPMASNSGRRSAPPLNLTGLPGTEKLNEKEKELCQMVRLVPGAYLEYKSALLNECNKQGGLRLAQARALIKIDVNKTRKIYDFLIREGYITKG
For B4, the binding result in experiment [3] and in experiment [4] was “binds” in each case.

B5: GTF2H4 (protein, UniProt Q92759 1-462)
chain: MESTPSRGLNRVHLQCRNLQEFLGGLSPGVLDRLYGHPATCLAVFRELPSLAKNWVMRMLFLEQPLPQAAVALWVKKEFSKAQEESTGLLSGLRIWHTQLLPGGLQGLILNPIFRQNLRIALLGGGKAWSDDTSQLGPDKHARDVPSLDKYAEERWEVVLHFMVGSPSAAVSQDLAQLLSQAGLMKSTEPGEPPCITSAGFQFLLLDTPAQLWYFMLQYLQTAQSRGMDLVEILSFLFQLSFSTLGKDYSVEGMSDSLLNFLQHLREFGLVFQRKRKSRRYYPTRLAINLSSGVSGAGGTVHQPGFIVVETNYRLYAYTESELQIALIALFSEMLYRFPNMVVAQVTRESVQQAIASGITAQQIIHFLRTRAHPVMLKQTPVLPPTITDQIRLWELERDRLRFTEGVLYNQFLSQVDFELLLAHARELGVLVFENSAKRLMVVTPAGHSDVKRFWKRQKHSS
In the case of B5, the binding result in experiment [3] is reported as “no binding”; in experiment [4], “binds”.

B6: GTF2H3 (protein, UniProt Q13889 1-308)
chain: MVSDEDELNLLVIVVDANPIWWGKQALKESQFTLSKCIDAVMVLGNSHLFMNRSNKLAVIASHIQESRFLYPGKNGRLGDFFGDPGNPPEFNPSGSKDGKYELLTSANEVIVEEIKDLMTKSDIKGQHTETLLAGSLAKALCYIHRMNKEVKDNQEMKSRILVIKAAEDSALQYMNFMNVIFAAQKQNILIDACVLDSDSGLLQQACDITGGLYLKVPQMPSLLQYLLWVFLPDQDQRSQLILPPPVHVDYRAACFCHRNLIEIGYVCSVCLSIFCNFSPICTTCETAFKISLPPVLKAKKKKLKVSA
On to B6, for which the binding result in experiment [3] is on record as “no binding”; in experiment [4] it was “binds”.
